According to patent US20200061062A1, “INHIBITORS OF HUMAN PHOSPHATIDYLINOSITOL 3-KINASE DELTA” (ICOS Corporation, priority 2000, published 2020):
At least one compound was matched to its structure with a doubt left.

What was measured:
[1] = tested on: osteoclasts; experiment: Osteoclast function, pit depths on dentine slices; type: cell-based, mouse; settings: 100 nM
Protocol: To analyze the effect of the PI3Kδ inhibitor D-000 on osteoclasts, mouse bone marrow cells were isolated and differentiated them to osteoclasts by treating the cells with Macrophage Colony Stimulating Factor^−1 (mCSF^−1) and Osteoprotegerin Ligand (OPGL) in serum-containing medium (αMEM with 10% heat-inactivated FBS; Sigma) for 3 days. On day four, when the osteoclasts had developed, the medium was removed and cells were harvested. The osteoclasts were plated on dentine slices at 10^5 cells/well in growth medium, i.e., αMEM containing 1% serum and 2% BSA with […] and 10 ng/mL mCSF-1. After 3 hr, the medium was changed to 1% serum and 1% BSA, with or without osteopontin (25 μg/mL) and the PI3K inhibitors (100 nM). The medium was changed every 24 hours with fresh osteopontin and the inhibitors. At 72 hr, the medium was removed, and the dentine surfaces were washed with water to remove cell debris and stained with acid hematoxylin. Excess stain was washed and the pit depths were quantitated using confocal microscopy.

[2] = tested on: Class I PI 3-kinases; settings: background; read-out: IC50 against each of the various Class I PI 3-kinases; cited from earlier work

Structure (SMILES) | Effect on osteoclast activity [1] | IC50 [2] [nM]
O=c1cc(N2CCOCC2)oc2c(-c3ccccc3)cccc12 [LY294002, reference compound] | inhibited osteoclast activity | 
COC[C@H]1OC(=O)c2coc3c2[C@@]1(C)C1=C(C3=O)[C@@H]2CCC(=O)[C@@]2(C)C[C@H]1OC(C)=O [Wortmannin, wortmannin] | inhibited osteoclast activity | 1 to 10
